PubChem BioAssay AID652259, Drosophila RNAi Screening Center | 2013

Test: 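Genome-wide hunt for genes that control Wingless pathway activity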 (primary screen)
Cells: Drosophila clone 8 imaginal disc epithelial cells
Knock-down reagent: long dsRNA against Drosophila genes
Treatment: pathway stimulated by co-transfected Wingless expression plasmid
Measured: 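Firefly luciferase from a tcf-site Wingless reporter, measured alongside co-transfected Renilla luciferase that tracks transfection; pathway stimulated by a Wingless plasmid; the firefly-to-Renilla ratio is not deposited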
Scale: firefly reporter light: higher = more Wg reporter light, before normalisation; Renilla control light: higher = more transfected or surviving cells
Rule for the call: 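Strong candidates differ from their plate mean by at least two out of four per-plate statistical tests; weak candidates meet just one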
Meaning of the calls: active = candidate regulator (raises or lowers reporter); inactive = not a candidate
In all, the deposit lists about 22,000 reagents; shown is an unselected part of those with a known target gene and a result. Over the whole deposit, 233 (1.1%) got an active call. 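Light values are raw, unnormalised plate reads; the ratio scores behind the reporter calls were not deposited.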 Entries without a mark were called inactive. Not given: the amount of reagent, the time to read-out, the dose of the treatment.

gene	amplicon	firefly reporter light, replicate 1	firefly reporter light, replicate 2	Renilla control light, replicate 1	Renilla control light, replicate 2
S-Lap5	DRSC06732	5243		2152	
cwo	DRSC17072	11393		2256	
CG9849	DRSC04573	3216	8333	1266	3888
Lasp	DRSC10379	3984		1504	
egl	DRSC04682	3593	7041	915	3290
anchor	DRSC10861	2694		1320	
Prp18	DRSC16802	1707	6141	368	1864
CG8369	DRSC16413	18458		5256	
Ets98B	DRSC16666	11644	7.59e5	4957	3.23e5
CG13813	DRSC10068	8419		1904	
CG9072	DRSC20147	23100		11525	
SP1173	DRSC11277	3858		1380	
CG31436	DRSC14661	20454		14008	

Targets listed so far whose target name starts with E or e:
gene	amplicon	firefly reporter light, replicate 1	firefly reporter light, replicate 2	Renilla control light, replicate 1	Renilla control light, replicate 2
egl	DRSC04682	3593	7041	915	3290
Ets98B	DRSC16666	11644	7.59e5	4957	3.23e5

The list goes on.
gene	amplicon	firefly reporter light, replicate 1	firefly reporter light, replicate 2	Renilla control light, replicate 1	Renilla control light, replicate 2
Hayan	DRSC19989	3312	7860	1152	2788
Hayan	DRSC22231	8.42e5	8.44e5	3.72e5	3.91e5
mahe	DRSC17755	3748	10052	971	2096
CG11396	DRSC11654	18451		6368	
CG12880	DRSC14568	1976	8508	730	1798
AIMP1	DRSC07118	3418	9088	1488	3549
drm	DRSC00277	2112	7701	1115	1291
SA2	DRSC08385	4903		3052	
IFT46	DRSC02462	2803	7671	707	2880
Ctu2	DRSC02024	15074		4793	
CG9948	DRSC11104	5232		2760	
fh	DRSC18430	13972		9864	
RfC4	DRSC08691	8317		3174	
Or59c	DRSC04633	3200	4906	756	2371
Ptp52F	DRSC06717	5792		2309	
Gr59e	DRSC04276	2625	6146	598	2211
